Laboratory results from paper PMC6120924, “YesU from Bacillus subtilis preferentially binds fucosylated glycans” (Scientific Reports, 2018).
Results are given in words; binding and its absence hold for the method and conditions named.

Biological target: B. subtilis hypothetical cytosolic protein 031524 (YesU) (Bacillus subtilis) (UniProt O31524)
Experiment: SEC; purified His-tagged YesU in solution; molecular mass of approximately 25 kDa; column and buffer not told in the text shown (Fig. S1); both purified

- binding: no binding
B1: B. subtilis hypothetical cytosolic protein 031524 (YesU) (protein, UniProt O31524 1-220)
chain: MYKEGACLYRNPLRSKSDVKDWRMEGGGQISFDDHSLHLSHVQDEAHFVFWCPETFPDGIIVTWDFSPIEQPGLCMLFFAAAGIRGEDLFDPSLRKRTGTYPEYHSGDINALHLSYFRRKYAEERAFRTCNLRKSRGFHLAAMGADPLPSPDDADSPYRMKLIKDKGYVHFSINGLPILEWMDDGSTYGPVLTKGKIGFRQMAPMKAVYRDFAVHQAVRR
